Reference: patent publication US7238666B2, “Method of inhibiting fibrosis with a somatostatin agonist” (Societe de Conseils de Recherches et d'Applications …, priority 1996, dated 2007)
Not every detail of the peptide structures is certain; ends, links or a residue may be inferred. Positions of bridges follow the written chain, without caps; N, C: chain ends. Non-standard residues stand in square brackets, D forms with d. Residues, ends and D or L forms follow the SMILES beside them. d2Nal = N[C@H](Cc1ccc2ccccc2c1)C(=O)O

Sequences of proteins named here, by UniProt entry; tags and fusion partners are left off. A change or cut given only in a name is not applied to a line headed by its entry.
UniProt P30874: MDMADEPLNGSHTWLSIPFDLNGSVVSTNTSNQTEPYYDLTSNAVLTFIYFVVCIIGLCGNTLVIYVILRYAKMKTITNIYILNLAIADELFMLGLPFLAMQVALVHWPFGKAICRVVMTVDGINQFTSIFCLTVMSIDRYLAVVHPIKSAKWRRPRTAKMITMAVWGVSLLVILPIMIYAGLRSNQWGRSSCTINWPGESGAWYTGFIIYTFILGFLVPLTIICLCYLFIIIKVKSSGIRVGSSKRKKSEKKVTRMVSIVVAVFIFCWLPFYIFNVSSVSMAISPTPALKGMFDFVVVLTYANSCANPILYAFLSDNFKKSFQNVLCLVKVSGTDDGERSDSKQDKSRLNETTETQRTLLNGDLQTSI
UniProt P32745: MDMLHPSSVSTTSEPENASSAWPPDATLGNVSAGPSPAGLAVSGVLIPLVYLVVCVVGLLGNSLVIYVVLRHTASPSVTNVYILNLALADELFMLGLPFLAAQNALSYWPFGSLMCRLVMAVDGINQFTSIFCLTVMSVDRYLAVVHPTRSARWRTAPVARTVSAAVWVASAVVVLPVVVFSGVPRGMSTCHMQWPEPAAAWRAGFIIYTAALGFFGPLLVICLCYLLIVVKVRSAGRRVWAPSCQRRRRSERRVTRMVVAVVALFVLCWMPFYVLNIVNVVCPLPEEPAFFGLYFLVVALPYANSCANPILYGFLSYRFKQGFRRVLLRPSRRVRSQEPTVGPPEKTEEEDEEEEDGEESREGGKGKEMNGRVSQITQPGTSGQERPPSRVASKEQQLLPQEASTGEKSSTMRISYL

Legend:
human SSTR-2 = human SSTR-2 (Homo sapiens, UniProt P30874); experiment: Somatostatin receptor binding assay, [125I-Tyr11]somatostatin-14, membranes of transfected CHO-K1 cells; details: 0.05 nM [125I-Tyr11]somatostatin-14, 30 min at 30° C., Ki=IC50/[1+(LC/LEC)], read-out: Ki hSSTR-2
human SSTR-3 = human SSTR-3 (Homo sapiens, UniProt P32745); experiment: as above; details: 0.05 nM [125I-Tyr11]somatostatin-14, 30 min at 30° C., Ki=IC50/[1+(LC/LEC)], read-out: Ki hSSTR-3

Structure (SMILES): C[C@@H](O)[C@H](NC(=O)[C@@H]1CSSC[C@H](NC(=O)[C@H](N)Cc2ccc3ccccc3c2)C(=O)N[C@@H](Cc2ccc(O)cc2)C(=O)N[C@H](Cc2c[nH]c3ccccc23)C(=O)N[C@@H](CCCCN)C(=O)N[C@@H]([C@@H](C)O)C(=O)N1)C(N)=O [BIM-23014, D-β-Nal-Cys-Tyr-D-Trp-Lys-Thr-Cys-Thr-NH2] (H-[d2Nal]CY[dW]KTCT-NH2; disulfide 2-7; N-terminus assumed)
- Ki (human SSTR-2): 1.1 nM
- Ki (human SSTR-3): 121 nM
